The data set in a line: self-splicing fitness, log relative to wild type (ln ratio); higher = more splicing; Tetrahymena group I intron in knt gene, E. coli kanamycin selection, DiMSum; sequences stand for … in CUCUCU…GGAGGGAAAAGUUAUCAGGCAUGCACCUGGUAGCUAGUCUUUAAACCAAUAGAUUGCAUCGGUUUAAAAGGCAAGACCGUCAAAUUGCGGGAAAGGGGUCAACAGCCGUUCAGUACCAAGUCUCAGGGGAAACUUUGAGAUGGCCUUGCAAAGGGUAUGGUAAUAAGCUGACGGACAUGGUCCUAACCACGCAGCCAAGUCCUAAGUCAACAGAUCUUCUGUUGAUAUGGAUGCAGUUCACAGACUAAAUGUCGGUCGGGGAAGAUGUAUUCUUCUCAUAAGAUAUAGUCGGACCUCUCCUUAAUGGGAGCUAGCGGAUGAAGUGAUGCAACACUGGAGCCGCUGGGAACUAAUUUGUAUGCGAAAGUAUAUUGAUUAGUUUUGGAGUACUCGUGGUCG
The essentials:
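The eight P1ex-region nucleotides of an intron in the knt kanamycin-resistance gene on pET-22b(+) were all randomised and the library put into E. coli BL21(DE3). Six replicate transformations were grown overnight at 37°C or 30°C on LB agar with or without 25 μg/mL kanamycin, together with 100 μg/mL carbenicillin, 50 μM IPTG and 0.2% rhamnose. Colonies were pooled and amplicon-sequenced on an Illumina HiSeq 2500. Fitness from DiMSum is the error-weighted combination of wild-type-normalised replicate fold changes, kanamycin over none.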

± gives the uncertainty stated by the source. Many of these values have a large error.

For ACGGAGCAAUAUUACGCCGU, the “self-splicing fitness (ln)” value reads like this: (30 °C) -2.89 ± 0.51; (37 °C) -1.98 ± 0.57.
As for UUGCAGCAAUAUUACGUGGC, the “self-splicing fitness (ln)” value (30 °C) is -5.61 ± 0.71.
As to AUACAGCAAUAUUACGAGAG, the “self-splicing fitness (ln)” value (30 °C) is -3.39 ± 0.14 and the “self-splicing fitness (ln)” value (37 °C) was -2.1 ± 0.088.
In the case of GCCGAGCAAUAUUACGAAAA, the “self-splicing fitness (ln)” value (30 °C) is -1.52 ± 0.65.
As to ACAUAGCAAUAUUACGCAAC, the “self-splicing fitness (ln)” value is -3.7 ± 0.52 (30 °C) and -2.79 ± 0.53 (37 °C).
Consider GGAAAGCAAUAUUACGCCUG, for which the “self-splicing fitness (ln)” value (37 °C) was -1.27 ± 0.55.
In the case of UGGGAGCAAUAUUACGCGCU, the “self-splicing fitness (ln)” value (30 °C) is -3.48 ± 1.1.
On the same count and under the same terms, the same measure for AAUUAGCAAUAUUACGGGAC: -1.96 ± 0.87.
In the case of UGCGAGCAAUAUUACGAAAG, the “self-splicing fitness (ln)” value is -2.87 ± 0.29 (30 °C) and -2.87 ± 0.43 (37 °C).
As for CCUCAGCAAUAUUACGAAAC, the “self-splicing fitness (ln)” value (30 °C) was -3.14 ± 0.53.
For the sequence GAAAAGCAAUAUUACGCUCC, the “self-splicing fitness (ln)” value is -2.68 ± 0.55 (30 °C) and -3.37 ± 1 (37 °C).
Turning to GUCGAGCAAUAUUACGACCA, the “self-splicing fitness (ln)” value (30 °C) was -1.67 ± 0.65.
Turning to GCCCAGCAAUAUUACGAGGU, the “self-splicing fitness (ln)” value (30 °C) was -3.81 ± 0.2 and the “self-splicing fitness (ln)” value (37 °C) was -3.07 ± 0.22.
Turning to UUGCAGCAAUAUUACGCGCC, the “self-splicing fitness (ln)” value (37 °C) was -0.753 ± 0.53.
As to GCGAAGCAAUAUUACGGAGC, the “self-splicing fitness (ln)” value (30 °C) is -2.69 ± 0.16 and the “self-splicing fitness (ln)” value (37 °C) is -2.52 ± 0.21.
CUAAAGCAAUAUUACGACUG: the “self-splicing fitness (ln)” value by setting is: (30 °C) 0.0292 ± 0.098; (37 °C) 0.417 ± 0.12.
Turning to CUCCAGCAAUAUUACGACCC, the “self-splicing fitness (ln)” value is -3.35 ± 1 (30 °C) and -1.82 ± 0.6 (37 °C).
In the same order, the values of GUGGAGCAAUAUUACGCCCG are -3.06 ± 0.54 and -1.76 ± 0.81.
In the same order, the values of AGUUAGCAAUAUUACGCCUC are -3.92 ± 1 and -2.24 ± 0.55.
The matching figures for CUUUAGCAAUAUUACGGCUA: -3.13 ± 1 and -2.68 ± 0.56.
For GUGGAGCAAUAUUACGAGCU, the “self-splicing fitness (ln)” value was -3.17 ± 0.26 (30 °C) and -2.01 ± 0.28 (37 °C).
CUGUAGCAAUAUUACGCAAA: the “self-splicing fitness (ln)” value (37 °C) was determined as 0.0981 ± 1.2.
Regarding UACCAGCAAUAUUACGCUGC, the “self-splicing fitness (ln)” value was -5.04 ± 1 (30 °C) and -3.23 ± 0.6 (37 °C).
For AGAGAGCAAUAUUACGCUGG, the “self-splicing fitness (ln)” value runs as follows: (30 °C) -3.07 ± 0.27; (37 °C) -2.4 ± 0.32.
In the case of GGGUAGCAAUAUUACGCUAG, under “37 °C”, the “self-splicing fitness (ln)” value was -1.24 ± 0.26.
Take UGUGAGCAAUAUUACGCCAU: the “self-splicing fitness (ln)” value was -0.868 ± 1 (30 °C) and -2.87 ± 0.75 (37 °C).
In the case of AUGGAGCAAUAUUACGCCGG, for the setting “37 °C”, the “self-splicing fitness (ln)” value is -1.65 ± 0.54.
For CUUUAGCAAUAUUACGAAGG, the “self-splicing fitness (ln)” value is -1.23 ± 0.11 (30 °C) and -1.85 ± 0.21 (37 °C).
On to UCCUAGCAAUAUUACGAUUC, for which the “self-splicing fitness (ln)” value (30 °C) was -4.12 ± 0.73.
CGUCAGCAAUAUUACGCUUG: the “self-splicing fitness (ln)” value is, setting by setting: (30 °C) -1.03 ± 0.098; (37 °C) 0.41 ± 0.12.
The matching figures for UUAUAGCAAUAUUACGAAAC: -2.48 ± 0.69 and -2.29 ± 1.1.
The matching figures for CGUCAGCAAUAUUACGAAAA: -3.68 ± 0.6 and -1.47 ± 0.55.
Take CAGGAGCAAUAUUACGUUCU: the “self-splicing fitness (ln)” value was -4.15 ± 0.2 (30 °C) and -2.05 ± 0.14 (37 °C).
Take UCUUAGCAAUAUUACGACCA: the “self-splicing fitness (ln)” value (37 °C) is -1.33 ± 0.62.
On the same count and under the same terms, then CGAGAGCAAUAUUACGGCUA, with -0.839 ± 0.57; and CUGCAGCAAUAUUACGAGAU, with -2.37 ± 0.55.
For the sequence AGCGAGCAAUAUUACGUUGC, for the setting “30 °C”, the “self-splicing fitness (ln)” value is -3.61 ± 0.53.
GCGGAGCAAUAUUACGAACC: where the note is “37 °C”, the “self-splicing fitness (ln)” value was -0.00188 ± 0.52.
As to UUGAAGCAAUAUUACGCUGC, the “self-splicing fitness (ln)” value (30 °C) is -3.03 ± 1.1.
Regarding GCCUAGCAAUAUUACGGAGC, the “self-splicing fitness (ln)” value is, setting by setting: (30 °C) -2.44 ± 0.13; (37 °C) -1.43 ± 0.1.
For CUUAAGCAAUAUUACGUAGC, for the setting “37 °C”, the “self-splicing fitness (ln)” value was -3.86 ± 0.59.
As for GGUGAGCAAUAUUACGCCAG, under “37 °C”, the “self-splicing fitness (ln)” value is -0.666 ± 0.61.
As to ACAAAGCAAUAUUACGAAAC, where the note is “30 °C”, the “self-splicing fitness (ln)” value is -3.91 ± 0.59.
As for GCCGAGCAAUAUUACGAUAC, the “self-splicing fitness (ln)” value (30 °C) was -3.52 ± 1.1.
For AGAGAGCAAUAUUACGCAUU, the “self-splicing fitness (ln)” value runs as follows: (30 °C) -3.41 ± 0.18; (37 °C) -2.35 ± 0.15.
The matching figures for GGAGAGCAAUAUUACGACUA: -1.52 ± 0.93 and -1.06 ± 0.65.

Source of the values: the supplement of paper PMC7877785.
